# Test results taken from doi:10.1101/2022.11.02.514868.
# By UniProt entry, the sequences of proteins in these tests, tags left out. Where a name states a change or a piece, a line headed by the entry shows the natural chain unless it says otherwise.
# UniProt P42232: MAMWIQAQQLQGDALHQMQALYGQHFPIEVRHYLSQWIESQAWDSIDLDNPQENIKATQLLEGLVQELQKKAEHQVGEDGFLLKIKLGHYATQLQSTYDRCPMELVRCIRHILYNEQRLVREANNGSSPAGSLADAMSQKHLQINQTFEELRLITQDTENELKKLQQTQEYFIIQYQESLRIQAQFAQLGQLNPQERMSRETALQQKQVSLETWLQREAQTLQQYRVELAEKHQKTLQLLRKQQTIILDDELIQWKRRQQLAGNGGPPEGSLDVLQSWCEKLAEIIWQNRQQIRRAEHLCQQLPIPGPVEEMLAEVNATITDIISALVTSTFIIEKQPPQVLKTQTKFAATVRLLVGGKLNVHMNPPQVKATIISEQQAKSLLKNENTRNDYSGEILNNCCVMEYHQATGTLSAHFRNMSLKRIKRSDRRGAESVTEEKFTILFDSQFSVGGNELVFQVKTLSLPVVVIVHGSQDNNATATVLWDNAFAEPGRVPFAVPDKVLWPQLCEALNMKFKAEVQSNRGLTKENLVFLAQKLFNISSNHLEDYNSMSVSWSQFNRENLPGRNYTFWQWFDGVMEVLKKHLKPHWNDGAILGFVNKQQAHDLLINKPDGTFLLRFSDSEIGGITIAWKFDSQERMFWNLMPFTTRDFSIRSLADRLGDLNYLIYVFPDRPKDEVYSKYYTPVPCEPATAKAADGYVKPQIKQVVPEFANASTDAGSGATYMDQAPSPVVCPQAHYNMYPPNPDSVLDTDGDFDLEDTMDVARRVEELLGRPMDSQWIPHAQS
# UniProt O08900: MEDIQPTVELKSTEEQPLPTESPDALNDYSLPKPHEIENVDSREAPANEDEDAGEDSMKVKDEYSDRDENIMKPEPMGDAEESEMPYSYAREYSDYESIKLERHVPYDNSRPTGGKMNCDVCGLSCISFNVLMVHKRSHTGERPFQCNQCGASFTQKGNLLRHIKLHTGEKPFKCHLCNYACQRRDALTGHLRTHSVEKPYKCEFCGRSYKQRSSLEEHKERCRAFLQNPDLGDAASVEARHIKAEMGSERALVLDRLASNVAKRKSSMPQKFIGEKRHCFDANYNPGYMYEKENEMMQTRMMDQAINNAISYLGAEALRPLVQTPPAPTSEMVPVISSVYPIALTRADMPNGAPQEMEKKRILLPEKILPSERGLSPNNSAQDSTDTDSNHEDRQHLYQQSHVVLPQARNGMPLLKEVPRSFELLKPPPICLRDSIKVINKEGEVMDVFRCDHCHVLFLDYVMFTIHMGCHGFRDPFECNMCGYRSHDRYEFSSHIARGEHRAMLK
# UniProt Q03267: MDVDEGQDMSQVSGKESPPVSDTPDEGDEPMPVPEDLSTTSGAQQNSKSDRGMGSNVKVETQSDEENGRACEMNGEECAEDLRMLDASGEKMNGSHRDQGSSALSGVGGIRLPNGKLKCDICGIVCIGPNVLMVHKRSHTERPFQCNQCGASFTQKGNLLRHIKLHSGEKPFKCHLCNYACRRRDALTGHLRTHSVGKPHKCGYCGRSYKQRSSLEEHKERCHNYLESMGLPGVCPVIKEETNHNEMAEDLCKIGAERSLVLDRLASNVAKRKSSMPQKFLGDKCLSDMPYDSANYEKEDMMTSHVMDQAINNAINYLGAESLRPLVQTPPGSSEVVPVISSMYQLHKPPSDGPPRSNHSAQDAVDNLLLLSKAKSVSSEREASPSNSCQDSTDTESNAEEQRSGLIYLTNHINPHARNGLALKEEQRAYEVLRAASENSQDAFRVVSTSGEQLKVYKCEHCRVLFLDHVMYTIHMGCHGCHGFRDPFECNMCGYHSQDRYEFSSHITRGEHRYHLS
# UniProt Q8C208: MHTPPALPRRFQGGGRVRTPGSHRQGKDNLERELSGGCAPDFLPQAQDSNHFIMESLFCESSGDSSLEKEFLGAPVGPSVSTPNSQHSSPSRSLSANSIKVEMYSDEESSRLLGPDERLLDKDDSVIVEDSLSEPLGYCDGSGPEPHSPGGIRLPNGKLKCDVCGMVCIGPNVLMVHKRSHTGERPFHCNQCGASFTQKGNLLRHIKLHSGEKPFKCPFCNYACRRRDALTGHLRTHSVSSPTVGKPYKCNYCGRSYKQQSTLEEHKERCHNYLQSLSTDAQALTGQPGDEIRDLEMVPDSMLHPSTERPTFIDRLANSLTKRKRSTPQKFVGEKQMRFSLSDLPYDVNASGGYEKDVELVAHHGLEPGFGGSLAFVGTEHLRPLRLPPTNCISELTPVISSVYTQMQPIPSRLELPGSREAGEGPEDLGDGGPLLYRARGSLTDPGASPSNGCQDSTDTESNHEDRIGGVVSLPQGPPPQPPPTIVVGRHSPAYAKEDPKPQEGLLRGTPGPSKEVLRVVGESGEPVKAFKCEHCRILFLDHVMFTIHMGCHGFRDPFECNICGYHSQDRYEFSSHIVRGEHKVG
# No constants are given. Whether binding was seen depends on the method and setting. Binding seen in cells or lysates may run through a third protein. Binding calls can cover weak binding; strength is not graded here.
# Biological target: Constitutively active STAT5B (STAT5B^CA), tagless (UniProt P42232)
# Assay: co-IP
row,binding,Substance
1,no binding,"Aiolos (Ikzf3), overexpressed, V5-tagged (from UniProt O08900 1-507)"
2,no binding,"Ikaros (Ikzf1), overexpressed, V5-tagged (from UniProt Q03267 1-517)"
3,binds,V5-tagged wild-type Eos (Eos^WT) (from UniProt Q8C208 1-586)
